Measurements: paper doi:10.1101/2023.09.23.559074, “Direct ionic stress sensing and mitigation by the transcription factor NFAT5” (bioRxiv, 2023)
No constants are given. Whether binding was seen depends on the method and setting. Where a sequence is shown, tags or fusion partners need not be part of it.

Tests used:
[1] = biological target: GFP-CTD (superfolder GFP fused to the C-terminal domain of NFAT5, a.a. 544-1531) (human) (UniProt O94916); assay: in vitro phase separation (droplet) assay, fluorescence or brightfield microscopy; as a1 but without dextran; GFP-CTD 70 uM; NaCl up to 1000 mOsm/L; both purified
[2] = biological target: GFP-CTD (superfolder GFP fused to the C-terminal domain of NFAT5, a.a. 544-1531) (human) (UniProt O94916); assay: condition: only no added salt (20 mM Na-HEPES, 5% dextran); 70 uM; in vitro phase separation (droplet) assay, fluorescence or brightfield microscopy; as a1 but no added salt: 20 mM Na-HEPES pH 7.4, 1 mM TCEP, 5% dextran; GFP-CTD 70 uM, GFP-PLD 90 uM; both purified
[3] = biological target: GFP-PLD (superfolder GFP fused to the prion-like domain of NFAT5, a.a. 999-1454) (human) (UniProt O94916); assay: condition: only no added salt (20 mM Na-HEPES, 5% dextran); 90 uM; in vitro phase separation (droplet) assay, fluorescence or brightfield microscopy; as a1 but no added salt: 20 mM Na-HEPES pH 7.4, 1 mM TCEP, 5% dextran; GFP-CTD 70 uM, GFP-PLD 90 uM; both purified

Binder	binding [1]	binding [2]	binding [3]
GFP-CTD (superfolder GFP fused to the C-terminal domain of NFAT5, a.a. 544-1531) (domain or fragment, human, UniProt O94916 544-1531, looked up, NFAT5 (TonEBP), human, 1531 a.a. protein; C-terminal domain (CTD), a.a; 544-1531; The methods for the bacterial construct (pET-28a) say only 'NFAT5 CTD'; also called GFP-NFAT5 CTD; NFAT5 GFP-CTD; not shown: sfGFP, N-terminal, kept) DPAAAGALNVNVKKEISSPARPCSFEEAMKAMKTTGCNLDKVNIIPNALMTPLIPSSMIKSEDVTPMEVTAEKRSSTIFKTTKSVGSTQQTLENISNIAGNGSFSSPSSSHLPSENEKQQQIQPKAYNPETLTTIQTQDISQPGTFPAVSASSQLPNSDALLQQATQFQTRETQSREILQSDGTVVNLSQLTEASQQQQQSPLQEQAQTLQQQISSNIFPSPNSVSQLQNTIQQLQAGSFTGSTASGSSGSVDLVQQVLEAQQQLSSVLFSAPDGNENVQEQLSADIFQQVSQIQSGVSPGMFSSTEPTVHTRPDNLLPGRAESVHPQSENTLSNQQQQQQQQQQVMESSAAMVMEMQQSICQAAAQIQSELFPSTASANGNLQQSPVYQQTSHMMSALSTNEDMQMQCELFSSPPAVSGNETSTTTTQQVATPGTTMFQTSSSGDGEETGTQAKQIQNSVFQTMVQMQHSGDNQPQVNLFSSTKSMMSVQNSGTQQQGNGLFQQGNEMMSLQSGNFLQQSSHSQAQLFHPQNPIADAQNLSQETQGSLFHSPNPIVHSQTSTTSSEQMQPPMFHSQSTIAVLQGSSVPQDQQSTNIFLSQSPMNNLQTNTVAQEAFFAAPNSISPLQSTSNSEQQAAFQQQAPISHIQTPMLSQEQAQPPQQGLFQPQVALGSLPPNPMPQSQQGTMFQSQHSIVAMQSNSPSQEQQQQQQQQQQQQQQQQQSILFSNQNTMATMASPKQPPPNMIFNPNQNPMANQEQQNQSIFHQQSNMAPMNQEQQPMQFQSQSTVSSLQNPGPTQSESSQTPLFHSSPQIQLVQGSPSSQEQQVTLFLSPASMSALQTSINQQDMQQSPLYSPQNNMPGIQGATSSPQPQATLFHNTAGGTMNQLQNSPGSSQQTSGMFLFGIQNNCSQLLTSGPATLPDQLMAISQPGQPQNEGQPPVTTLLSQQMPENSPLASSINTNQNIEKIDLLVSLQNQGNNLTGSF	no binding (condition: without dextran; 70 uM)	no binding	
GFP-PLD (superfolder GFP fused to the prion-like domain of NFAT5, a.a. 999-1454) (domain or fragment, human, UniProt O94916 999-1454, looked up, NFAT5 (TonEBP), human, 1531 a.a. protein; prion-like domain (PLD), a.a; 999-1454; The methods for the bacterial construct say only 'NFAT5 PLD'; also called GFP-NFAT5 PLD; not shown: sfGFP, N-terminal, kept) QIQNSVFQTMVQMQHSGDNQPQVNLFSSTKSMMSVQNSGTQQQGNGLFQQGNEMMSLQSGNFLQQSSHSQAQLFHPQNPIADAQNLSQETQGSLFHSPNPIVHSQTSTTSSEQMQPPMFHSQSTIAVLQGSSVPQDQQSTNIFLSQSPMNNLQTNTVAQEAFFAAPNSISPLQSTSNSEQQAAFQQQAPISHIQTPMLSQEQAQPPQQGLFQPQVALGSLPPNPMPQSQQGTMFQSQHSIVAMQSNSPSQEQQQQQQQQQQQQQQQQQSILFSNQNTMATMASPKQPPPNMIFNPNQNPMANQEQQNQSIFHQQSNMAPMNQEQQPMQFQSQSTVSSLQNPGPTQSESSQTPLFHSSPQIQLVQGSPSSQEQQVTLFLSPASMSALQTSINQQDMQQSPLYSPQNNMPGIQGATSSPQPQATLFHNTAGGTMNQLQNSPGSSQQTSGMFLFGIQNN			no binding
